Data taken from publication PMC11046779.
Results are given in words; binding and its absence hold for the method and conditions named. In cells and extracts the contact can be indirect. Some entries that bind do so weakly or less than the wild type.

Protein sequences, listed by entry. Tags and fused reporters are not part of them.
UniProt Q9NZZ3: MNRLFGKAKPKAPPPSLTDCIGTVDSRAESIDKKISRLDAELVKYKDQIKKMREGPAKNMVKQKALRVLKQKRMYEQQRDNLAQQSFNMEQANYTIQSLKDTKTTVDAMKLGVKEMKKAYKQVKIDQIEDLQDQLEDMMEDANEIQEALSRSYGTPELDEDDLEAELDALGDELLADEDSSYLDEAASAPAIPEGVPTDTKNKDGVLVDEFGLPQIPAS
UniProt P25963: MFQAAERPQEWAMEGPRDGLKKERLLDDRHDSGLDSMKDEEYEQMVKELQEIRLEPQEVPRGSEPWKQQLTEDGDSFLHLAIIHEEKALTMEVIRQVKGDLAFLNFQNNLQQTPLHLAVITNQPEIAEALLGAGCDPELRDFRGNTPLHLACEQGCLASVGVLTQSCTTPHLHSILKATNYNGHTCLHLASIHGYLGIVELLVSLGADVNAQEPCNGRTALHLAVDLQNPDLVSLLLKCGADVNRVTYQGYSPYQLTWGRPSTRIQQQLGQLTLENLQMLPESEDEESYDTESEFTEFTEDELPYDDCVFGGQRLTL

Biological target: Charged multivesicular body protein 5 (human (endogenous in human chondrocytes)) (UniProt Q9NZZ3)
Assay: co-IP; lysates of human chondrocytes treated with IL-1β; supernatants incubated with rabbit anti-CHMP5, anti-IκBα or anti-USP15 antibodies at 4 °C overnight, then protein A agarose beads; western blot

Row | Molecule | binding
1 | NF-κB inhibitor alpha (from UniProt P25963 1-317) | binds
2 | Ubiquitin specific peptidase 15 (enzyme, UniProt Q9Y4E8 1-981) MAEGGAADLDTQRSDIATLLKTSLRKGDTWYLVDSRWFKQWKKYVGFDSWDKYQMGDQNVYPGPIDNSGLLKDGDAQSLKEHLIDELDYILLPTEGWNKLVSWYTLMEGQEPIARKVVEQGMFVKHCKVEVYLTELKLCENGNMNNVVTRRFSKADTIDTIEKEIRKIFSIPDEKETRLWNKYMSNTFEPLNKPDSTIQDAGLYQGQVLVIEQKNEDGTWPRGPSTPKSPGASNFSTLPKISPSSLSNNYNNMNNRNVKNSNYCLPSYTAYKNYDYSEPGRNNEQPGLCGLSNLGNTCFMNSAIQCLSNTPPLTEYFLNDKYQEELNFDNPLGMRGEIAKSYAELIKQMWSGKFSYVTPRAFKTQVGRFAPQFSGYQQQDCQELLAFLLDGLHEDLNRIRKKPYIQLKDADGRPDKVVAEEAWENHLKRNDSIIVDIFHGLFKSTLVCPECAKISVTFDPFCYLTLPLPMKKERTLEVYLVRMDPLTKPMQYKVVVPKIGNILDLCTALSALSGIPADKMIVTDIYNHRFHRIFAMDENLSSIMERDDIYVFEININRTEDTEHVIIPVCLREKFRHSSYTHHTGSSLFGQPFLMAVPRNNTEDKLYNLLLLRMCRYVKISTETEETEGSLHCCKDQNINGNGPNGIHEEGSPSEMETDEPDDESSQDQELPSENENSQSEDSVGGDNDSENGLCTEDTCKGQLTGHKKRLFTFQFNNLGNTDINYIKDDTRHIRFDDRQLRLDERSFLALDWDPDLKKRYFDENAAEDFEKHESVEYKPPKKPFVKLKDCIELFTTKEKLGAEDPWYCPNCKEHQQATKKLDLWSLPPVLVVHLKRFSYSRYMRDKLDTLVDFPINDLDMSEFLINPNAGPCRYNLIAVSNHYGGMGGGHYTAFAKNKDDGKWYYFDDSSVSTASEDQIVSKAAYVLFYQRQDTFSGTGFFPLDRETKGASAATGIPLESDEDSNDNDNDIENENCMHTN | binds
